Some results were stated once for a whole list of compounds, not compound by compound.
The compounds below were run against T1, BTK (Homo sapiens, UniProt Q06187) (assay: BTK degradation in NAMALWA cells, immunoblot).
T1 construct: host or cells: NAMALWA
Format: cell-based

Chains of the proteins cited; added tags and fusions are not shown. Lines headed by an entry give the natural chain unless they say otherwise; changes in a name come on top.
UniProt Q06187: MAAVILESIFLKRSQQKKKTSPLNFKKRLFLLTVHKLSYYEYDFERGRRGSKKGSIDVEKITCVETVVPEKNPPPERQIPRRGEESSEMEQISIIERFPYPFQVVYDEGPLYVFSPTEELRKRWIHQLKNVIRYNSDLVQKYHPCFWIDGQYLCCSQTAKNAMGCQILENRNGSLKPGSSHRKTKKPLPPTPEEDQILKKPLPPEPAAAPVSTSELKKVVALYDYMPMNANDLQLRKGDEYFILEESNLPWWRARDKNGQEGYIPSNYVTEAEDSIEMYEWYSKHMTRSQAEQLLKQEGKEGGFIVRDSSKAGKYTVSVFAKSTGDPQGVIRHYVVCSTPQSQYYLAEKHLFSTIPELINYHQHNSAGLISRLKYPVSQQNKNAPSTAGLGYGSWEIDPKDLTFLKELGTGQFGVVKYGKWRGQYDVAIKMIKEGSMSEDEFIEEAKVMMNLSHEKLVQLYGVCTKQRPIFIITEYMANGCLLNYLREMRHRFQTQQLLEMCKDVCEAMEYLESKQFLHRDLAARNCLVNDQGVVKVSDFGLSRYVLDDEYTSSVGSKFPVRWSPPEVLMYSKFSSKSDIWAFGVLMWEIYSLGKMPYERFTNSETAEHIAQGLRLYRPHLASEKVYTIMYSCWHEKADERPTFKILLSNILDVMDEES

| SMILES | DC50 [nM] |
| --- | --- |
| Cc1ncsc1-c1ccc(CNC(=O)[C@@H]2C[C@@H](O)CN2C(=O)[C@H](C(C)C)N2Cc3ccccc3C2=O)c(OCCCCOCCCCN2CCC(n3nc(-c4ccc(Oc5ccccc5)cc4)c4c(N)ncnc43)CC2)c1 [Compound 127, (2S,4R)—N-(2-(4-(4-(4-(4-amino-3-(4-phenoxyphenyl)-1H-pyrazolo[3,4-d]pyrimidin-1-yl)piperidin-1-yl)butoxy)butoxy)-4-(4-methylthiazol-5-yl)benzyl)-4-hydroxy-1-((S)-3-methyl-2-(1-oxoisoindolin-2-yl)butanoyl)pyrrolidine-2-carboxamide] | > 1000 |
| Cc1ncsc1-c1ccc(CNC(=O)[C@@H]2C[C@@H](O)CN2C(=O)[C@H](C(C)C)N2Cc3ccccc3C2=O)c(OCCCOCCC(=O)N2CCC(n3nc(-c4ccc(Oc5ccccc5)cc4)c4c(N)ncnc43)CC2)c1 [Compound 128, (2S,4R)—N-(2-(3-(3-(4-(4-amino-3-(4-phenoxyphenyl)-1H-pyrazolo[3,4-d]pyrimidin-1-yl)piperidin-1-yl)-3-oxopropoxy)propoxy)-4-(4-methylthiazol-5-yl)benzyl)-4-hydroxy-1-((S)-3-methyl-2-(1-oxoisoindolin-2-yl)butanoyl)pyrrolidine-2-carboxamide] | > 1000 |
| Cc1ncsc1-c1ccc(CNC(=O)[C@@H]2C[C@@H](O)CN2C(=O)[C@@H](NC(=O)COCCOCCN2CCC(n3nc(-c4ccc(Oc5ccccc5)cc4)c4c(N)ncnc43)CC2)C(C)(C)C)cc1 [Compound 129, (2S,4R)-1-((S)-2-(2-(2-(2-(4-(4-amino-3-(4-phenoxyphenyl)-1H-pyrazolo[3,4-d]pyrimidin-1-yl)piperidin-1-yl)ethoxy)ethoxy)acetamido)-3,3-dimethylbutanoyl)-4-hydroxy-N-(4-(4-methylthiazol-5-yl)benzyl)pyrrolidine-2-carboxamide] | > 1000 |
